The list does not hold the whole screen: it is rich in T/C values a quarter to a half above the control, in often repeated tests (any T/C) and in doses without a T/C. Other doses and runs of a compound stand elsewhere. T/C gives the treated animals as a percentage of the vehicle group. Some doses have a count of surviving animals in place of a T/C: the source files T/C as zero there, which appears to mark a toxic dose or a test without result, not a measured value. Some doses without a T/C left all or most animals alive at the check, yet need not have been tolerated: the source hardly ever lists a survival T/C far under the control, and the zero likely stands for such cases as well. Counts of survivors are from the toxicity check (mostly the fifth day) where no day follows; animals may have died later. Schedules are NCI's codes, read here as Q, the interval in days (D) or hours (H), X, the number of doses. Some entries hold several experiments; the values are given in rising order. For survival time, this PubChem deposit counts one and a half times the control or more as active, and values a quarter to a half above the control carry no call in these data; other NCI protocols may use other cut-offs. Some T/C values are followed by the survivors on the day toxicity was checked, most often the fifth; where none is given, no animal had died by that day.
System: BDF1 mice, P388 leukemia ip, median survival T/C
Assay: NCI In Vivo Anticancer Drug Screen. Data for tumor model P388 Leukemia (intraperitoneal) in B6D2F1 (BDF1) mice
Conditions: T/C endpoint: median survival time, higher T/C = longer survival
Method: The antitumor activity of compounds was measured in mice bearing transplantable tumors. Survival or tumor size were measured and the results are expressed as the measurement made in the treated group (T) divided by the measurement made in the vehicle treated control group (C). The tumor model used in this assay is P388 Leukemia (intraperitoneal) in B6D2F1 (BDF1) mice

[1] = dose: 50.0 mg/kg/injection, schedule: Q01DX009 (ip), vehicle: saline with Tween-80
[2] = dose: 400.0 mg/kg/injection, schedule: Q04DX003 (ip), vehicle: saline
[3] = dose: 200.0 mg/kg/injection, schedule: Q01DX009 (ip), vehicle: saline with Tween-80
[4] = dose: 100.0 mg/kg/injection, schedule: Q01DX009 (ip), vehicle: saline with Tween-80
[5] = dose: 200.0 mg/kg/injection, schedule: Q04DX003 (ip), vehicle: saline with Tween-80
[6] = dose: 25.0 mg/kg/injection, schedule: Q04DX003 (ip), vehicle: Klucel (hydroxypropylcellulose) (HPC)

In the case of `COCCCn1c(C(Cl)(Cl)Cl)nn2c(=O)c3ccccc3nc2c1=O`, the survivor count [1] is reported as 6 of 6.

In the case of `COC(=O)NC1=C(N2CC2)C(=O)C(NC(=O)OC)=C(N2CC2)C1=O`, the survivor count (dose: 1.5 mg/kg/injection, schedule: Q01DX009 (ip), vehicle: saline) is reported as 6 of 6, the survivor count (dose: 3.0 mg/kg/injection, schedule: Q01DX009 (ip), vehicle: saline) is reported as 6 of 6 and the survivor count (dose: 6.0 mg/kg/injection, schedule: Q01DX009 (ip), vehicle: saline) is reported as 4 of 6 and 6 of 6.

In the case of `CC1(CCNC2CCCCC2)Oc2ccccc2O1`, the survivor count (dose: 200.0 mg/kg/injection, schedule: Q04DX002 (ip), vehicle: Klucel (hydroxypropylcellulose) (HPC)) is reported as 1 of 6.

`COc1ccc(CC2Cc3cc(OC)c(OC)cc3C=N2)cc1OC` (stereo unspecified) was tested, and the survivor count (dose: 200.0 mg/kg/injection, schedule: Q01DX009 (ip), vehicle: saline) was 3 of 6, the survivor count (dose: 400.0 mg/kg/injection, schedule: Q01DX009 (ip), vehicle: saline) was 0 of 6 and the survivor count [2] was 4 of 6.

With `CCOC(=O)C(Br)C(Br)C(=O)OCC` (stereo unspecified) the survivor count [3] was 1 of 6.

For `CCC1CC2CC(c3cc4c(cc3OC)N(C)C3C(O)(C(=O)OC)C(OC(C)=O)C5(CC)C=CCN6CCC43C65)c3[nH]c4ccccc4c3CCN(C1)C2` (stereo unspecified), the T/C (dose: 0.06 mg/kg/injection, schedule: Q01DX009 (ip), vehicle: water) was 127 % of control, the T/C (dose: 0.12 mg/kg/injection, schedule: Q01DX009 (ip), vehicle: water) was 131 % of control and the T/C (dose: 1.0 mg/kg/injection, schedule: Q04DX003 (ip), vehicle: water) was 131 % of control. For the same compound, the T/C (dose: 4.0 mg/kg/injection, schedule: Q04DX003 (ip), vehicle: water) was 140 % of control.

With `O=C(NNc1ccc(F)cc1)C12CC3CC(CC(C3)C1)C2` the survivor count [4] was 6 of 6 and the survivor count [3] was 5 of 6.

With `Cc1cccc(/C=N\OCc2ccccc2)n1` the T/C [5] was 136 % of control.

With `ClCc1c2ccccc2c(CCl)c2ccccc12` the T/C (dose: 0.5 mg/kg/injection, schedule: Q04DX003 (ip), vehicle: Klucel (hydroxypropylcellulose) (HPC)) was 126 % of control, the T/C (dose: 0.67 mg/kg/injection, schedule: Q01DX009 (ip), vehicle: saline) was 140 % of control and the T/C (dose: 0.75 mg/kg/injection, schedule: Q01DX009 (ip), vehicle: Klucel (hydroxypropylcellulose) (HPC)) was 142 % of control. The T/C (dose: 0.8 mg/kg/injection, schedule: Q04DX003 (ip), vehicle: Klucel (hydroxypropylcellulose) (HPC)) was 130 % of control, the T/C (dose: 1.3 mg/kg/injection, schedule: Q04DX003 (ip), vehicle: Klucel (hydroxypropylcellulose) (HPC)) was 141 % of control and the survivor count (dose: 12.0 mg/kg/injection, schedule: Q01DX009 (ip), vehicle: Klucel (hydroxypropylcellulose) (HPC)) was 6 of 6. The T/C (dose: 12.5 mg/kg/injection, schedule: Q04DX003 (ip), vehicle: Klucel (hydroxypropylcellulose) (HPC)) was 146 % of control, the T/C (dose: 18.0 mg/kg/injection, schedule: Q04DX003 (ip), vehicle: Klucel (hydroxypropylcellulose) (HPC)) was 145 % of control and the T/C [6] was 142 % of control. For the same compound, the survivor count (dose: 50.0 mg/kg/injection, schedule: Q04DX003 (ip), vehicle: Klucel (hydroxypropylcellulose) (HPC)) was 6 of 6, the survivor count (dose: 100.0 mg/kg/injection, schedule: Q04DX003 (ip), vehicle: Klucel (hydroxypropylcellulose) (HPC)) was 6 of 6 and the survivor count (dose: 200.0 mg/kg/injection, schedule: Q04DX003 (ip), vehicle: Klucel (hydroxypropylcellulose) (HPC)) was 6 of 6. For the same compound, the survivor count (dose: 400.0 mg/kg/injection, schedule: Q04DX003 (ip), vehicle: Klucel (hydroxypropylcellulose) (HPC)) was 5 of 6.

`CCOc1ccc(C(/C(Cl)=N/O)C(Cl)(Cl)Cl)cc1` (stereo unspecified) was tested, and the T/C (dose: 12.5 mg/kg/injection, schedule: Q01DX009 (ip), vehicle: acetone) was 136 % of control, the T/C (dose: 25.0 mg/kg/injection, schedule: Q01DX009 (ip), vehicle: acetone) was 147 % of control and the survivor count (dose: 50.0 mg/kg/injection, schedule: Q01DX009 (ip), vehicle: acetone) was 5 of 6. For the same compound, the survivor count (dose: 180.0 mg/kg/injection, schedule: Q04DX003 (ip), vehicle: Klucel (hydroxypropylcellulose) (HPC)) was 6 of 6.

For `C=C(C)[C@@]12O[C@@]3(CCCCCCCCC)O[C@@H]1[C@@H]1[C@@H]4O[C@]4(CO)[C@@H](O)[C@]4(O)C(=O)C(C)=CC4[C@@]1(O3)[C@H](C)[C@H]2OC(=O)c1ccccc1` (stereo partly specified), the T/C (dose: 12.5 micrograms/kg/injection, schedule: Q01DX009 (ip), vehicle: saline + alcohol) was 135 % of control, the T/C (dose: 25.0 micrograms/kg/injection, schedule: Q01DX009 (ip), vehicle: saline + alcohol) was 148 % of control and the T/C (dose: 50.0 micrograms/kg/injection, schedule: Q01DX009 (ip), vehicle: saline + alcohol) was 146 % of control. The T/C (dose: 100.0 micrograms/kg/injection, schedule: Q01DX009 (ip), vehicle: saline + alcohol) was 135 % of control [5 of 6 alive] and the T/C (dose: 200.0 micrograms/kg/injection, schedule: Q01DX009 (ip), vehicle: saline + alcohol) was 143 % of control.

`O=c1c2ccccc2nc(-c2ccccc2)n1-c1cc(C(F)(F)F)cc(C(F)(F)F)c1` was tested, and the survivor count [1] was 6 of 6, the survivor count [4] was 6 of 6 and the survivor count [3] was 6 of 6.

For `CCOC(=O)c1cc(/C=C/c2ccccc2)[nH]c(=O)c1C#N`, the survivor count (dose: 100.0 mg/kg/injection, schedule: Q01DX009 (ip), vehicle: Klucel (hydroxypropylcellulose) (HPC)) was 6 of 6 and the survivor count (dose: 400.0 mg/kg/injection, schedule: Q01DX009 (ip), vehicle: Klucel (hydroxypropylcellulose) (HPC)) was 6 of 6.

With `COCCn1c2nc(=O)n(-c3ccccc3)c(=O)c-2nc2ccccc21` the survivor count [1] was 5 of 6, the survivor count [4] was 0 of 6 and the survivor count [3] was 0 of 6.

For `S=C1SCCS1`, the survivor count (dose: 200.0 mg/kg/injection, schedule: Q04DX003 (ip), vehicle: saline) was 6 of 6 and the survivor count [2] was 6 of 6.

With `CCCCN(C)N=Nc1ccccc1C(N)=O` the survivor count [3] was 6 of 6 and the survivor count (dose: 400.0 mg/kg/injection, schedule: Q01DX009 (ip), vehicle: saline with Tween-80) was 4 of 6.

With `O=S(=O)(NC1CCCCC1)c1ccccc1` the survivor count [5] was 6 of 6.

For `Cc1[nH]c(=O)[nH]c(=O)c1N(CCF)CCCl`, the T/C (dose: 5.0 mg/kg/injection, schedule: Q01DX009 (ip), vehicle: saline) was 133 % of control, the T/C (dose: 20.0 mg/kg/injection, schedule: Q01DX009 (ip), vehicle: Klucel (hydroxypropylcellulose) (HPC)) was 145 % of control and the survivor count (dose: 20.0 mg/kg/injection, schedule: Q01DX009 (ip), vehicle: saline) was 10 of 10. The survivor count (dose: 40.0 mg/kg/injection, schedule: Q01DX009 (ip), vehicle: Klucel (hydroxypropylcellulose) (HPC)) was 1 of 6, the survivor count (dose: 40.0 mg/kg/injection, schedule: Q01DX009 (ip), vehicle: saline) was 8 of 10 and the survivor count (dose: 80.0 mg/kg/injection, schedule: Q01DX009 (ip), vehicle: Klucel (hydroxypropylcellulose) (HPC)) was 1 of 6. For the same compound, the survivor count (dose: 80.0 mg/kg/injection, schedule: Q01DX009 (ip), vehicle: saline) was 5 of 10.

In the case of `C[C@]12CC[C@H](OC3OC(CO)C(O)C(O)C3O)C[C@H]1CC[C@@H]1[C@@H]2CC[C@]2(C)[C@@H](C3=CCOC3=O)CC[C@]12O` (stereo partly specified), the survivor count (dose: 1.6 mg/kg/injection, schedule: Q01DX010 (ip), vehicle: saline) is reported as 6 of 6, the survivor count (dose: 2.0 mg/kg/injection, schedule: Q01DX010 (ip), vehicle: saline) is reported as 6 of 6 and the survivor count (dose: 3.2 mg/kg/injection, schedule: Q01DX010 (ip), vehicle: saline) is reported as 6 of 6.

For `COC(=O)C(CSCc1ccccc1)NC(=O)CCNC(=O)OCc1ccccc1` (stereo unspecified), the T/C [6] was 127 % of control.

With `CC1=CC(=O)C(C(C)C)=CC1=O` the survivor count (dose: 12.5 mg/kg/injection, schedule: Q01DX009 (ip), vehicle: saline with Tween-80) was 1 of 6, the survivor count (dose: 25.0 mg/kg/injection, schedule: Q01DX009 (ip), vehicle: saline with Tween-80) was 2 of 6 and the survivor count [1] was 0 of 6.

With `CCCCCC1(O)C2CCCC1CCC2` (stereo unspecified) the T/C (dose: 200.0 mg/kg/injection, schedule: Q01DX001 (ip), vehicle: saline sonified) was 130 % of control.

Source: PubChem BioAssay AID328 (DTP/NCI, 2004)
